Laboratory results published in PMC9331078.
No constants are given. Whether binding was seen depends on the method and setting. In cells and extracts the contact can be indirect. Binding calls can cover weak binding; strength is not graded here.

Protein sequences, listed by entry. Tags and fused reporters are not part of them. Lines headed by an entry give the natural chain unless they say otherwise; changes in a name come on top.
UniProt O43734: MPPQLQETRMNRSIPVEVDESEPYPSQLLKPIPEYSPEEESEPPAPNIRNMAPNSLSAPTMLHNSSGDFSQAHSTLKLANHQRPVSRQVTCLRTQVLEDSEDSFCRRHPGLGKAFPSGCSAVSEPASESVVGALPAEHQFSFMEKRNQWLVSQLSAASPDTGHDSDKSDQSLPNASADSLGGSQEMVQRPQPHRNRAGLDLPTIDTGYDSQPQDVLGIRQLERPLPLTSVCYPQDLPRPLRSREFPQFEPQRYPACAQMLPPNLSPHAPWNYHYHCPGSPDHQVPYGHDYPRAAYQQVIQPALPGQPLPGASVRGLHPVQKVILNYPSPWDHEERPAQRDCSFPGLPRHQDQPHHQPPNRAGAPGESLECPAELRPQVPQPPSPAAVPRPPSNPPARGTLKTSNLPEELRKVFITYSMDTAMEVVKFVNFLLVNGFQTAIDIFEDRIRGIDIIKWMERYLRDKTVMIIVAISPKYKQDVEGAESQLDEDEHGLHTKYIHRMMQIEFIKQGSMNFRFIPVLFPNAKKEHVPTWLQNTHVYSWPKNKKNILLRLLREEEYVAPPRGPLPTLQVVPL
UniProt P26358: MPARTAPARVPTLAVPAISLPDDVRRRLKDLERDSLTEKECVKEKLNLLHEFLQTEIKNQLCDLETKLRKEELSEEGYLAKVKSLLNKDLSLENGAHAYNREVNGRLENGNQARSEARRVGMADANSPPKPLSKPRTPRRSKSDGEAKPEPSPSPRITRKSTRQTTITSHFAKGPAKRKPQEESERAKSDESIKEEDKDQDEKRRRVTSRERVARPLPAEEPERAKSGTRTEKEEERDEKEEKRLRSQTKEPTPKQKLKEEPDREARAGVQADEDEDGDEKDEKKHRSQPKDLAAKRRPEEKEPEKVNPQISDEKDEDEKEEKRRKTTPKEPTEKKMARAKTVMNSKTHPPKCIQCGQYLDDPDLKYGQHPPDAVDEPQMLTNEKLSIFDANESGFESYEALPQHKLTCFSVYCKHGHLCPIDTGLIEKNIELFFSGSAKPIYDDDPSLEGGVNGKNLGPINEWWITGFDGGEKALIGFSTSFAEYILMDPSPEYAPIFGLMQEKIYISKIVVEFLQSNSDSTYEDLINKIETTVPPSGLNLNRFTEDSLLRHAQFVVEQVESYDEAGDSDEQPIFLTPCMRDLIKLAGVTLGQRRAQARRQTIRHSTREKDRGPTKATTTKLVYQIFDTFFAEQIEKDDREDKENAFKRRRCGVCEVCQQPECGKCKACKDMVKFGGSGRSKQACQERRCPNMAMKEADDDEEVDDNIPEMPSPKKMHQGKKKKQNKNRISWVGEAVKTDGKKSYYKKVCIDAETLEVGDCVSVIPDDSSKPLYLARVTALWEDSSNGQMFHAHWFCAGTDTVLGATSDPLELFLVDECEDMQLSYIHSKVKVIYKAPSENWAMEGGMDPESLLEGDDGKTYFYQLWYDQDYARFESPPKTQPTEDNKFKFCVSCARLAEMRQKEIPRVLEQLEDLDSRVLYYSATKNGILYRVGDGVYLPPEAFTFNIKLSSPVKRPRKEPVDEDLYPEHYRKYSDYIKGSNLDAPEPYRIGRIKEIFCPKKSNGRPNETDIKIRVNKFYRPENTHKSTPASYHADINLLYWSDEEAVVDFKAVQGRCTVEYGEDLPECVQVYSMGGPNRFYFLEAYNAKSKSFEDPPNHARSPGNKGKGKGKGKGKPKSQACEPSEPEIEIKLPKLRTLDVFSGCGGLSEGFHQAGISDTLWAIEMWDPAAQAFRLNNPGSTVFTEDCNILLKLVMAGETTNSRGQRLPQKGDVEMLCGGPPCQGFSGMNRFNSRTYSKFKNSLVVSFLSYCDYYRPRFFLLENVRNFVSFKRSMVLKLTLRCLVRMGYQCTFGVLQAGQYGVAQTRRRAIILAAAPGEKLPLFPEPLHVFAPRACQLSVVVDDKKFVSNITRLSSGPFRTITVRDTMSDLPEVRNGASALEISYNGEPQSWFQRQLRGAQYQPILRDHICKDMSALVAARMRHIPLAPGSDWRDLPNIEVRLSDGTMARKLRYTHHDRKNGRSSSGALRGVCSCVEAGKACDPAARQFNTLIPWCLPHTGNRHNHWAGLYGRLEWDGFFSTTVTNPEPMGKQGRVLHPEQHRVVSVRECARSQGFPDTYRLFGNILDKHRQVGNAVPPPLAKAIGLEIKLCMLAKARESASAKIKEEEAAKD

What was measured:
[1] = biological target: Flag-TRAF3IP2 (UniProt O43734); assay: co-IP; UOK109 cells transfected with Flag-TRAF3IP2, HA-NICD1 and V5-NECD1; IP with anti-Flag antibody; western blot
[2] = biological target: TS domain of DNMT1 (truncated DNMT1) (UniProt P26358); assay: co-IP; HEK 293T cells transfected with DNMT1 truncations; western blot

| Substance | binding [1] | binding [2] |
| --- | --- | --- |
| HA-NICD1 (intracellular domain of NOTCH1) (from UniProt P46531) (domain or fragment) | binds |  |
| HNRNPK (partner of the DNMT1 and SETDB1 truncations in HEK293T) (from UniProt P61978 1-463) |  | binds |
